From PubChem BioAssay AID602313 (National Center for Advancing Translational Sciences (NCATS), 2012)
Among all 390,000 compounds or so, about 760 (0.19%) were called active. The shares of active, inactive and inconclusive entries below differ from those in the screen. Calls follow the shape of the dose curve; as a rule, active = well fitted inhibition curve with a large enough effect; inconclusive = small, poorly fitted or top-dose-only effect; inactive = flat fitted curve, though single readings scatter. Where the call is inconclusive, the potency comes from a doubtful curve fit.

experiment: qHTS for Inhibitors of Vif-A3F Interactions: qHTS; settings: HeLa A3F-eYFP + Vif (tagged APOBEC3F with the HIV-1 protein that degrades it), YFP fluorescence increase; series mostly up to 46.1 µM; activity, negative = active: at the top concentration; also: nearly all actives have a fitted effect of over 65% in size; as to activity, negative = active: % of control where 0% means no effect
Procedure, shortened: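 Fluorescence increase (Ex 488/Em 500-530) after overnight compound treatment at 37 deg C flags inhibition of Vif-driven A3F-eYFP loss in stable HeLa A3F-eYFP/Vif cells seeded overnight beforehand.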
Potency is read from the fitted curve at half-maximal effect.

SMILES	Potency	activity, negative = active
CCOC1=C/C(=C/c2c(N)n3nc(S(=O)(=O)CC)sc3nc2=O)C=CC1=O	inconclusive: 7.94 µM [inhibitor, partial curve, poor fit]	–
CCOC(=O)c1c(-c2ccc(C)cc2)cn2ccccc12	–	inactive: -3.09%
O=c1c2cc(N3CCOCC3)ccc2[nH]c(=S)n1Cc1ccco1	–	inactive: 0.478%
OC(CN1CCCCC1)Cn1c2ccccc2c2cc(Br)ccc21 (stereo not given)	–	inactive: 18%
c1ccc(-c2cnn3c(-c4ccccc4)c(-c4ccccc4)nc3n2)cc1	inconclusive: 1.78 µM [inhibitor, full curve, poor fit]	–
CCc1cccc(NC(=O)CCc2nc3cccnc3n2-c2ccccc2)c1	inconclusive: 35.5 µM [inhibitor, single point]	–
CSc1ccc(CCNC(=O)c2ccc(CS(=O)(=O)c3ccc(Br)cc3)o2)cc1	–	inactive: 4.68%
COCCNC(=O)c1cccc(Nc2nc3ccccc3n3nnnc23)c1	inconclusive: 35.5 µM [inhibitor, single point]	–
Cc1cccc(N(C(=O)c2snc(C(N)=O)c2N)C(C(=O)NC2CCCC2)c2ccco2)c1 (stereo not given)	–	inactive: 0.561%
CC(C)(C)C1CCc2sc(C(=O)NNC(=O)CCl)cc2C1 (stereo not given)	–	inactive: 3.53%
Cc1cc(NN)nc2ccc(Cl)cc12	inconclusive: 35.5 µM [inhibitor, single point]	–
N#Cc1c(C(F)(F)F)cc(-c2cccs2)nc1SCC(=O)Nc1ccc(F)cc1	inconclusive: 12.6 µM [inhibitor, partial curve, poor fit]	–
CCCCOc1ccc(C2C3CN(C(=O)OCC)CC=C3C(C#N)=C(N)C2(C#N)C#N)cc1OC (stereo not given)	–	inactive: -16.7%
Cc1ccc(OCC(=O)N/N=C/C=C/c2ccco2)cc1C	inconclusive: 22.4 µM [inhibitor, single point]	–
O=C1S/C(=C/c2ccc(N3CCOCC3)o2)C(=O)N1Cc1c(F)cccc1Cl	inconclusive: 2.82 µM [inhibitor, partial curve, poor fit]	–
COc1ccc(NC(=O)Cn2c(C)cc(=O)c3ccccc32)cc1	inconclusive: 5.62 µM [inhibitor, single point]	–
CCCOC(=O)/C(=C\C=C\c1ccco1)NC(=O)c1ccccc1	inconclusive: 35.5 µM [inhibitor, partial curve, poor fit]	–
Cc1nc(NN)c2c3c(sc2n1)COC(C)(C)C3	inconclusive: 22.4 µM [inhibitor, single point]	–
C/C(=N\NC(=S)NCc1ccccc1)c1cccs1	inconclusive: 3.55 µM [inhibitor, full curve, poor fit]	–
O=C(NC1CCCC1)c1cccc2c1C(=O)c1ccc(/C=C/c3ccccc3)cc1S2(=O)=O	inconclusive: 3.98 µM [inhibitor, full curve, poor fit]	–
COCCCNC(=O)c1ccc(S(=O)(=O)c2ccc(Cl)cc2)c(NC(C)=O)c1	inconclusive: 8.91 µM [inhibitor, partial curve, poor fit]	–
Cc1[nH]n(-c2cccc3ccccc23)c(=O)c1/C=N/NC(=O)c1cccc([N+](=O)[O-])c1	–	inactive: -2.62%

SMILES	Potency	activity, negative = active
Cc1ccc(NC(=O)CSc2nnc(C)c(=O)n2N)cc1	–	inactive: -13.1%
CCN(CC)c1ccc(/C=C(\C#N)C(=O)c2ccc(Br)cc2)cc1	inconclusive: 10 µM [inhibitor, partial curve, poor fit]	–
Cc1nn(-c2ccccc2)c(C)c1C(=O)OCC(O)=C(C#N)c1nc2ccccc2[nH]1	inconclusive: 7.94 µM [inhibitor, partial curve, poor fit]	–
Cc1ccc(S(=O)(=O)NCCNS(=O)(=O)c2ccc(C)cc2)cc1	inconclusive: 22.4 µM [inhibitor, single point]	–
Cc1ccc(C(=O)Nc2ccc3c(c2)OCCO3)cc1S(=O)(=O)N1CCOCC1	inconclusive: 6.31 µM [inhibitor, single point]	–
NC(=O)c1ccc(NC(=O)COC(=O)/C=C/c2cn(-c3ccccc3)nc2-c2cccnc2)cc1	inconclusive: 35.5 µM [inhibitor, single point]	–
COc1ccc(C=C2CS(=O)(=O)CC(=Cc3ccc(OC)cc3)C2=O)cc1	–	inactive: 3.01%
O=C(CSc1nc2c([nH]c3ccccc32)c(=O)n1-c1cccc(Cl)c1)c1ccccc1	inconclusive: 25.1 µM [inhibitor, single point]	–
CCc1ccc(-n2cc(-c3ccc(F)cc3)[n+]3c2SCCC3)cc1	inconclusive: 22.4 µM [inhibitor, partial curve, poor fit]	–
COc1ccc(S(=O)(=O)c2c(Nc3ccc(C)cc3C)sc(C(=O)c3ccc(F)cc3)c2N)cc1	–	inactive: -8.48%
CCOC(=O)c1c(NC(=O)COC(=O)c2nc(Cl)ccc2Cl)sc(C(=O)NC)c1C	inconclusive: 35.5 µM [inhibitor, single point]	–
CCCC(=O)Nc1nnc(SCC)s1	–	inactive: 8.79%
CN(C)Cc1c(C(=O)N/N=C/C=C/c2ccccc2)nnn1-c1nonc1N	inconclusive: 35.5 µM [inhibitor, single point]	–
CCOc1ncccc1C(=O)N1CCN(c2cccc(C)c2C)CC1	–	inactive: -23.8%
COc1ccc(S(=O)(=O)N2CCOCC2)cc1NC(=O)c1ccc(Cl)cc1	inconclusive: 35.5 µM [inhibitor, single point]	–
Cc1cccc(/C=N/NC(=O)c2cccc(NC(=O)c3ccccc3)c2)n1	inconclusive: 3.16 µM [inhibitor, single point]	–
Cc1c2cc(O)c(=O)cc-2oc2cc(O)c(O)cc12	inconclusive: 3.16 µM [inhibitor, full curve, poor fit]	–
N#CC1(Nc2cccc(Br)c2)C(=O)Nc2ccccc21 (stereo not given)	inconclusive: 35.5 µM [inhibitor, single point]	–
COc1cc(C)nc(-c2csc(C)n2)n1	inconclusive: 35.5 µM [inhibitor, single point]	–
COc1cccc(/C=C2\C(=O)C(=O)c3ccccc32)c1	inconclusive: 35.5 µM [inhibitor, single point]	–
C/C(=N\NC(=S)NCc1ccccc1)c1cccc(Br)c1	inconclusive: 5.62 µM [inhibitor, single point]	–
CC(=O)N1CCN(c2ccc(NC(=O)C(c3ccccc3)c3ccccc3)cc2)CC1	–	inactive: 7.27%

5 consecutive entries already listed, for reference:
SMILES	Potency	activity, negative = active
Cc1cccc(/C=N/NC(=O)c2cccc(NC(=O)c3ccccc3)c2)n1	inconclusive: 3.16 µM [inhibitor, single point]	–
Cc1c2cc(O)c(=O)cc-2oc2cc(O)c(O)cc12	inconclusive: 3.16 µM [inhibitor, full curve, poor fit]	–
N#CC1(Nc2cccc(Br)c2)C(=O)Nc2ccccc21 (stereo not given)	inconclusive: 35.5 µM [inhibitor, single point]	–
COc1cc(C)nc(-c2csc(C)n2)n1	inconclusive: 35.5 µM [inhibitor, single point]	–
COc1cccc(/C=C2\C(=O)C(=O)c3ccccc32)c1	inconclusive: 35.5 µM [inhibitor, single point]	–

Carrying on.

SMILES	Potency	activity, negative = active
CC(C)(C)NC(=O)CN1C(=O)NC(c2ccccc2)(c2ccccc2)C1=O	inconclusive: 35.5 µM [inhibitor, single point]	–
CCOC(=O)c1ccc(NC(=S)NCCc2ccccc2F)cc1	–	inactive: 5.21%
O=C(O)c1cc(C(=O)O)cc(-c2ccc(/C=c3/sc4nc5ccccc5n4c3=O)o2)c1	inconclusive: 6.31 µM [inhibitor, single point]	–
COc1ccc(/C=N\NC(=O)c2ccccc2[N+](=O)[O-])cc1COc1c(F)c(F)c(F)c(F)c1F	inconclusive: 11.2 µM [inhibitor, single point]	–
COc1ccc(-c2nc3ccncc3[nH]2)cc1OC	–	inactive: -2.51%
Cn1sc(=O)c2cc(S(=O)(=O)NC3CC3)ccc21	inconclusive: 6.31 µM [inhibitor, single point]	–
CN1CCc2c(sc(NC(=O)c3ccc(S(=O)(=O)N4CCCCCC4)cc3)c2C(N)=O)C1	inconclusive: 15.8 µM [inhibitor, partial curve, poor fit]	–
COc1cc(C(=O)Oc2ccc(C(=S)N3CCOCC3)cc2)cc(OC)c1OC	inconclusive: 5.62 µM [inhibitor, single point]	–
COc1ccc(NC(=O)CSc2ccccc2)cc1S(=O)(=O)N1CCOCC1	–	inactive: -0.443%
Oc1c(Br)cc(Br)c(/C=N/n2c(-c3ccccc3)n[nH]c2=S)c1Br	inconclusive: 12.6 µM [inhibitor, partial curve, poor fit]	–
O=C1c2cccc3c([N+](=O)[O-])ccc(c23)C(=O)N1O	active: 5.01 µM	–
O=[N+]([O-])c1ccc(C=NNc2ccccc2)cc1	inconclusive: 20 µM [inhibitor, single point]	–
COc1cccc(CNC(=O)C2CSC3(C)CCC(=O)N23)c1 (stereo not given)	inconclusive: 35.5 µM [inhibitor, partial curve, poor fit]	–
COc1ccc(NC(=O)Cn2c(=O)n(CCCCCC(=O)NCc3ccc4c(c3)OCO4)c(=O)c3sccc32)cc1Cl	inconclusive: 22.4 µM [inhibitor, single point]	–
Cc1cc(C)c(S(=O)(=O)NCCn2c(C)cc3ccccc32)c(C)c1	inconclusive: 35.5 µM [inhibitor, single point]	–
Nc1c(C(=O)C2CC2)sc2nc(-c3cccs3)cc(C(F)(F)F)c12	active: 0.631 µM	–
C#CCOCCOCCOCCNc1nc(N2CCN(C(=O)C([C@@H](C)O)n3cc([C@@H](N)CCCCN)nn3)CC2)nc(N2CCN(C(=O)[C@H](CCCN=C(N)N)n3cc(C(N)[C@@H](C)CC)nn3)CC2)n1 (stereo not given in full)	–	inactive: -1.48%
CCOc1cccc(C(=O)Nc2ccc3oc(-c4ccncc4)nc3c2)c1	inconclusive: 35.5 µM [inhibitor, single point]	–
CC(OC(=O)CSc1ccc([N+](=O)[O-])cc1)C(=O)NCc1ccccc1 (stereo not given)	inconclusive: 25.1 µM [inhibitor, single point]	–
Cc1nnc(N/N=C/c2ccccc2O)n1N	inconclusive: 2.82 µM [inhibitor, partial curve, poor fit]	–
O=C(C[C@@H]1C/C=C/CC[C@H](Cc2ccc(F)cc2)C(=O)OC[C@@H](Cc2ccccc2)NC1=O)N[C@H](CO)Cc1ccccc1	inconclusive: 3.16 µM [inhibitor, full curve, poor fit]	–
